Test results reported in patent US20220098251A1, “PEPTIDE TAGS FOR LIGAND INDUCED DEGRADATION OF FUSION PROTEINS” (DANA-FARBER CANCER INSTITUTE, INC., priority 2018, published 2022).

Tested on: DDB1ΔB-CRBN
Assay: TR-FRET of SALL4 degron binding to CRBN
Set-up: species or system human
Details: SALL4 degron tags, biochemical assays
Procedure: Compounds in binding assays were dispensed into a 384-well microplate (Corning, 4514) using the D300e Digital Dispenser (HP) normalized to 1% DMSO and containing 100 nM biotinylated Strep-Avi-SALL4 (WT or mutant, see, FIG. 3A-FIG. 3K), 1 μM His6-DDB1ΔB-His6-CRBNBODIPY-Spycatcher and 4 nM terbium-coupled streptavidin (Invitrogen) in a buffer containing 50 mM Tris pH 7.5, 100 mM NaCl, 1 mM TCEP, 0.1% Pluronic F-68 solution (Sigma). Before TR-FRET measurements were conducted, the reactions were incubated for 15 minutes at room temperature (RT). After excitation of terbium fluorescence at 337 nm, emission at 490 nm (terbium) and 520 nm (boron-dipyrromethene (BODIPY)) were recorded with a 70 μs delay over 600 μs to reduce background fluorescence and the reaction was followed over 30×200 second cycles of each data point using a PHERAstar® FS microplate reader (BMG Labtech). The TR-FRET signal of each data point was extracted by calculating the 520/490 nm ratios. Data from three independent measurements (n=3), each calculated as an average of 5 technical replicates per well per experiment, was plotted and the half maximal effective concentrations EC50 values calculated using variable slope equation in GraphPad Prism 7. […] The resulting data were fitted as described previously. (Petzold et al., Nature 532:127-130 (2016)).

Substance: SALL4 ZnF4: degron tag MHYRTHTGERPFQCKICGRAFSTKGNLKTHLGVHRTNTSIKTQ (SEQ ID NO: 28)
- IMiD-dependent dimerization / binding affinity to CRBN: binds with reduced affinity
